The chains behind the UniProt entries cited, without tags or fusion partners.
UniProt O94916: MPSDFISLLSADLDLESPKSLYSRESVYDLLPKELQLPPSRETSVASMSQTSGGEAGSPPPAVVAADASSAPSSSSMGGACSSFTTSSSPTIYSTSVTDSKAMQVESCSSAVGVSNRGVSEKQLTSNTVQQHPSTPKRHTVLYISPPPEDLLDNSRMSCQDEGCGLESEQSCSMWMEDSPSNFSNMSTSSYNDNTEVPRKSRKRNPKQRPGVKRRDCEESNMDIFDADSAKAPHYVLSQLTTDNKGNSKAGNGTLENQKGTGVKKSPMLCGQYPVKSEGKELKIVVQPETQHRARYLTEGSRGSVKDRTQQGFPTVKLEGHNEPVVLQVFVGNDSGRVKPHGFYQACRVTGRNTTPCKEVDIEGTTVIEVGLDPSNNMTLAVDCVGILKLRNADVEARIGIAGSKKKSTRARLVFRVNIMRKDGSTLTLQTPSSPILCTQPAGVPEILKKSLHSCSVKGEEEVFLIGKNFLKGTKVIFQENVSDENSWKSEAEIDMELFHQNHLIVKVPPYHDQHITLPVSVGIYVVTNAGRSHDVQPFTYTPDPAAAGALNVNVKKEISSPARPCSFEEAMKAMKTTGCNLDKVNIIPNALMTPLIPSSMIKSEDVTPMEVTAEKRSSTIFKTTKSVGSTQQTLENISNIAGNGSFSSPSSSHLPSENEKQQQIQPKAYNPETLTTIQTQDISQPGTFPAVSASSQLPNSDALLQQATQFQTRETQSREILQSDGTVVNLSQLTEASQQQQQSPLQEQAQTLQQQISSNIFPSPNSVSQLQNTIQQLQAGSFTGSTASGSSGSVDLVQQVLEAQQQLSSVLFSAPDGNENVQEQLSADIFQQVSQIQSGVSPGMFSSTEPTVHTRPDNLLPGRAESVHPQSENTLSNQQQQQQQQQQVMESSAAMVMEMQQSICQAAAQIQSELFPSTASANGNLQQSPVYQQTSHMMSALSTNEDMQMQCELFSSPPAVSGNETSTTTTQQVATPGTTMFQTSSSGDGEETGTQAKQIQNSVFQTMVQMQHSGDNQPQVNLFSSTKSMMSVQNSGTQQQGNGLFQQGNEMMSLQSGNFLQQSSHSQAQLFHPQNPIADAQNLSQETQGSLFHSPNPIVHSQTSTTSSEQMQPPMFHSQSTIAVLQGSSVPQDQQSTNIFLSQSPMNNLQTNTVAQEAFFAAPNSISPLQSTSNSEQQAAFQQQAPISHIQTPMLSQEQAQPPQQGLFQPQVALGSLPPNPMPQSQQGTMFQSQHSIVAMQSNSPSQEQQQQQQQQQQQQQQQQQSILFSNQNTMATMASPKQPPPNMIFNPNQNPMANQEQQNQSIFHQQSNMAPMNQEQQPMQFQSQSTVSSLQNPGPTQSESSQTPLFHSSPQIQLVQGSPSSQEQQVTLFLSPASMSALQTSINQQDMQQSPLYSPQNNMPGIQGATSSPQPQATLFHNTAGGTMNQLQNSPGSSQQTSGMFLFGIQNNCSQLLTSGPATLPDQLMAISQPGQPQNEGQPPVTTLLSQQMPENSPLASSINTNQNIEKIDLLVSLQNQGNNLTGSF
UniProt Q9Y4K3: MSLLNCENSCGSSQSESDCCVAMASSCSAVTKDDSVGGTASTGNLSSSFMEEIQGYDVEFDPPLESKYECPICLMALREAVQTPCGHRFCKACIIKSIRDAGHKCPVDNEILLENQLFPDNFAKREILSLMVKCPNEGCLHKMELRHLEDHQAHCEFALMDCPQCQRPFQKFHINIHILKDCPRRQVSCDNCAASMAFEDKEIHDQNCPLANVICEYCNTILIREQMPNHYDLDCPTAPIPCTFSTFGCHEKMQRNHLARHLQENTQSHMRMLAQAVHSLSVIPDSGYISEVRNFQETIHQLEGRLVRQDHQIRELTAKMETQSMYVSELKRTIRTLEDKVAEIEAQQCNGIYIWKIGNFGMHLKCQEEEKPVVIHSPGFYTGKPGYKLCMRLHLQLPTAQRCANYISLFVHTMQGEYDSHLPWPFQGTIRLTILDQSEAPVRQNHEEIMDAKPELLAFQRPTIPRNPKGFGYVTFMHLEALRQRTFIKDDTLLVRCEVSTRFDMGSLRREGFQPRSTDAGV

In paper PMC10333326:

Biological target: Flag-tagged NFAT5 wild-type (human) (UniProt O94916)
Assay: affinity purification with mass spectrometry; lysate in NETN buffer (50 mM Tris, 0.2 mM EDTA, 1% Triton X-100, 150 mM NaCl) on anti-FLAG M2 affinity gel 3 h at 4 °C, eluted with flag-peptides, silver-stained bands analysed by LC-MS/MS

- binding: binds
Substance: E3 ligase TRAF6, endogenous (from UniProt Q9Y4K3 1-522) (enzyme)

Results are given in words; binding and its absence hold for the method and conditions named. Binding seen in cells or lysates may run through a third protein. A yes stands for co-enrichment or nearness to the bait. Other partners may have been found.
